# Assay results published in PubChem BioAssay AID504444 (National Center for Advancing Translational Sciences (NCATS), 2011).
# Among all 360,000 compounds or so, about 7,500 (2.1%) were called active. Inconclusive means that the source gave no clear call. Such entries were picked first, then a sample of the others. Calls follow the shape of the dose curve; as a rule, active = well fitted inhibition curve with a large enough effect; inconclusive = small, poorly fitted or top-dose-only effect, or effect the other way; inactive = flat fitted curve, though single readings scatter. Where the call is inconclusive, the potency comes from a doubtful curve fit.
# Test: Nrf2 qHTS screen for inhibitors; also: nearly all actives have a fitted effect of over 60% in size
# Settings: A549 ARE-Fluc reporter, luciferase luminescence, 18-24 h; activity change, negative = inhibition: at 46 µM (top of the series)
# How it was run: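 A549 ARE_Fluc cells (5000/well, 5% FBS OPTI-MEM) pre-incubated 2 h, then treated with compounds 18-24 h at 37C/5% CO2 in concentration-response. CellTiter-Fluor viability read first; BugLite luciferase luminescence after 15 min at room temperature gives Nrf2 activity.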
# % is scaled to controls: 0 for no effect and ±100 for the full control effect; potency is read from the fitted curve at half-maximal effect.
SMILES,"activity change, negative = inhibition",Potency
CN1CCN(c2nc(-c3cc4ccccc4o3)cs2)CC1,inactive: 8.76%,
CC(=O)NCCc1nc2cc(NC(=O)COc3cccc(C)c3)ccc2n1C,,"inconclusive: 23.1 µM [activator, partial curve]"
Cc1cccc(OC(=O)c2cc(-c3ccc4c(c3)OCCO4)on2)c1,,"inconclusive: 29.1 µM [falling, single point]"
CC(=O)Oc1ccc(/C=C(\NC(=O)c2ccco2)C(=O)NCc2ccco2)cc1,,"inconclusive: 3.26 µM [activator, full curve, poor fit]"
N#CC(C#N)=C1C=CC=CN1/C(=C\c1ccco1)C(=O)c1ccccc1,inactive: -4.98%,
O=C(N1CCOCC1)n1cnc2ccccc21,,"inconclusive: 1.64 µM [falling, full curve, poor fit]"
COc1ccc2nc(N3C(=O)CNC3=S)sc2c1,,"inconclusive: 0.651 µM [activator, full curve, poor fit]"
N#C/C(=C\c1ccccn1)c1nc2ccccc2s1,,"inconclusive: 3.26 µM [activator, partial curve, poor fit]"
O=C(Nc1cccnc1)c1noc2c1CCCC2,,"inconclusive: 2.59 µM [activator, partial curve, poor fit]"
Clc1ccc(NCc2cccnc2)cc1,inactive: -17.6%,
CC(C)(C)OC(=O)N1CCC(c2c(C(=O)N3CCN(c4ncccn4)CC3)cnn2-c2ccccc2)CC1,inactive: 33.3%,
Cc1nc2c(-c3ccccc3)c(C)nn2c(C)c1CCC(=O)NCc1ccco1,inactive: 2.28%,
COC(=O)c1sccc1NC(=O)CSc1nnnn1-c1ccccc1F,,"inconclusive: 29.1 µM [falling, single point]"
COc1cccc2c1C(=O)CC1C2CCC2CC(=O)CCC21C (stereo not given),,"inconclusive: 20.6 µM [activator, partial curve]"
Cc1ccc(SCc2cc(=O)n3[nH]c(C)nc3n2)cc1,,"inconclusive: 6.51 µM [falling, single point]"
Cc1cc(C)c(S(=O)(=O)N2CCN(C(=O)C(C)Cn3nc(C)nc3C)CC2)c(C)c1 (stereo not given),inactive: 2.67%,
CSC1=NC2(CCN(C(=O)NC3CCCCC3)CC2)N=C1c1ccc(C(C)(C)C)cc1,,"inconclusive: 29.1 µM [activator, single point]"
COc1ccc(CNC(=O)[C@@H]2CC=C[C@@H]3CCN(Cc4ccc(Cl)c(Cl)c4)C(=O)[C@@H]32)cc1,,"inconclusive: 23.1 µM [falling, partial curve, poor fit]"
CC(=O)c1ccc(-n2c(C)c(C(C)=O)c3cc(O)ccc32)cc1,inactive: 0.557%,
CC/C(=N\NC(=O)c1c[nH]c2ccccc12)c1cccs1,,"inconclusive: 4.61 µM [activator, full curve, poor fit]"

# Reformatted tab-delimited: part of the list above.
SMILES	activity change, negative = inhibition	Potency
CC(C)(C)OC(=O)N1CCC(c2c(C(=O)N3CCN(c4ncccn4)CC3)cnn2-c2ccccc2)CC1	inactive: 33.3%	
COc1cccc2c1C(=O)CC1C2CCC2CC(=O)CCC21C (stereo not given)		inconclusive: 20.6 µM [activator, partial curve]
